From paper PMC8414725 come the findings set out here.

The chains behind the UniProt entries cited, without tags or fusion partners. Residues count along the entry.
UniProt P08581, residues 25-1390: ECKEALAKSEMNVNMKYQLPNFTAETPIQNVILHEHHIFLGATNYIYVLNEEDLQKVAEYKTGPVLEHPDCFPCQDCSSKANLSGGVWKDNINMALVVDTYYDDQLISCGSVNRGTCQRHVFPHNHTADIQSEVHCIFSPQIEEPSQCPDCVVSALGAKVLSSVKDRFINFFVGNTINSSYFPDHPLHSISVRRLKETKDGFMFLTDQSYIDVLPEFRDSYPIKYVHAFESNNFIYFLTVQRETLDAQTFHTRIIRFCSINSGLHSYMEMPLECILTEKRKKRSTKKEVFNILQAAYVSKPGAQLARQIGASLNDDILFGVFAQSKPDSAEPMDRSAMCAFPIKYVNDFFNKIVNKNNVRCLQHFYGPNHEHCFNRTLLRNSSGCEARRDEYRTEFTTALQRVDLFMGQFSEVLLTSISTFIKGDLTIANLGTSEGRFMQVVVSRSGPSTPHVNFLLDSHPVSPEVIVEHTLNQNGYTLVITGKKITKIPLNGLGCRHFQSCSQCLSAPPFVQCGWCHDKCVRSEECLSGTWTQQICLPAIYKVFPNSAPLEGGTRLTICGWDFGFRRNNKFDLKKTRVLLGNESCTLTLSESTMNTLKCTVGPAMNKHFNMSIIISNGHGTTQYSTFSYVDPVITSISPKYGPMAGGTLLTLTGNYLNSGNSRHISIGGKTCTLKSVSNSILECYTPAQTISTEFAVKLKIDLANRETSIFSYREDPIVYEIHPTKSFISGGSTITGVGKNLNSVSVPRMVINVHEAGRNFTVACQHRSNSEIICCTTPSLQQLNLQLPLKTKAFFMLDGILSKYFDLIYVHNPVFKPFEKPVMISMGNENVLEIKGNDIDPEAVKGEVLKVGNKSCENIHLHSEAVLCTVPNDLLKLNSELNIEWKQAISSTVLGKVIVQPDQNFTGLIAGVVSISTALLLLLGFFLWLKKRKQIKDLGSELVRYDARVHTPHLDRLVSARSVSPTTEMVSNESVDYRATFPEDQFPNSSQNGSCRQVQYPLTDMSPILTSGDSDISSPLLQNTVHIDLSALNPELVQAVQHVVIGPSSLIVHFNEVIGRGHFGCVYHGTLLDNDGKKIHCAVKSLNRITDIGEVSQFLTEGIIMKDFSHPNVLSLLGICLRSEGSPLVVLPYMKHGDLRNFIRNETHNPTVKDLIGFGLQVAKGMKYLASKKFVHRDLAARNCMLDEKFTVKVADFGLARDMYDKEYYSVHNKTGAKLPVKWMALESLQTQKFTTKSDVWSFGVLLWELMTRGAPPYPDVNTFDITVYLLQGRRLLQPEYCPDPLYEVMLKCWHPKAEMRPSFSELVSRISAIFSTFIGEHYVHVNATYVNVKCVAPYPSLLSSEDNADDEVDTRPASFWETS
UniProt P16056, residues 25-1379: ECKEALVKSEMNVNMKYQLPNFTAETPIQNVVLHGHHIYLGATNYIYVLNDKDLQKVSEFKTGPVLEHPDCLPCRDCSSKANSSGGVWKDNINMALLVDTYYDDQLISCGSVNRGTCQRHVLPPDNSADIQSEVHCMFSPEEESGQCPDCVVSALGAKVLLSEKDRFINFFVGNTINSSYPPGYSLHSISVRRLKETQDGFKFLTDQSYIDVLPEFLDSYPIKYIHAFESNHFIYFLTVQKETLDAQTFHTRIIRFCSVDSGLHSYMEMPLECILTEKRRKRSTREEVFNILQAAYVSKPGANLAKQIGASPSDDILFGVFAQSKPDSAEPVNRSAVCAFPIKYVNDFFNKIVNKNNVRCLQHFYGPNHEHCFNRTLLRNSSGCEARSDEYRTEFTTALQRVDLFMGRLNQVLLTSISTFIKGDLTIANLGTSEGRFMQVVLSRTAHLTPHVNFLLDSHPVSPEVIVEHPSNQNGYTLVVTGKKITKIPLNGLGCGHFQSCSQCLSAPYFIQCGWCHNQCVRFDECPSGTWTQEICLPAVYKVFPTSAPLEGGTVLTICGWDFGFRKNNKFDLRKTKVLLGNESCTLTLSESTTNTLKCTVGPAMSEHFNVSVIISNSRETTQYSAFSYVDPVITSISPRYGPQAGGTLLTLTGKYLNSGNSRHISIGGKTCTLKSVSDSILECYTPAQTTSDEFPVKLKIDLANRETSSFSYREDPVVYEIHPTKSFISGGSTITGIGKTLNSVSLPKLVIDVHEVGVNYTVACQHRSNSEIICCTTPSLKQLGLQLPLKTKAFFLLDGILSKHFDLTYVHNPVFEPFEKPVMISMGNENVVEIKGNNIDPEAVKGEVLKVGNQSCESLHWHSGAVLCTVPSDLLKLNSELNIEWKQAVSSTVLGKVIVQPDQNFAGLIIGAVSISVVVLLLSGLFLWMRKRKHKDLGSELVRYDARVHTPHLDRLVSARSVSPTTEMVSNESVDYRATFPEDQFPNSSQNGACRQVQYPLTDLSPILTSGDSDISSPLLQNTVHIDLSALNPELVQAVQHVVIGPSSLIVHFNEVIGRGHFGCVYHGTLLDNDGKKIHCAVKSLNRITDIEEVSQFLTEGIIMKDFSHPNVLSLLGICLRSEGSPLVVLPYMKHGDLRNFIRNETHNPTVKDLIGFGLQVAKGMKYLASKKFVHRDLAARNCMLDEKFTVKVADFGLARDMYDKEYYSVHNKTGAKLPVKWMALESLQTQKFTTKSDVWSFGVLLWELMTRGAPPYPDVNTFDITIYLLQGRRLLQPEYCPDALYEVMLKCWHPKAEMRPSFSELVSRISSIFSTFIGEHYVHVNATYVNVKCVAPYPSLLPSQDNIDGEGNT
UniProt Q9NZQ7, residues 19-290: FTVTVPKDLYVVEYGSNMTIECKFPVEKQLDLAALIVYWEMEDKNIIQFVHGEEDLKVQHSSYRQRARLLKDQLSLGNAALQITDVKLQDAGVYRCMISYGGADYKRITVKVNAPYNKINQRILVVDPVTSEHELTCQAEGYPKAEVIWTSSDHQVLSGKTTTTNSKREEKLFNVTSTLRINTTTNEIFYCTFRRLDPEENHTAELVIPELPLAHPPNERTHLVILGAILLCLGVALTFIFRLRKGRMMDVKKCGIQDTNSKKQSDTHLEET
UniProt Q9EP73, residues 19-290: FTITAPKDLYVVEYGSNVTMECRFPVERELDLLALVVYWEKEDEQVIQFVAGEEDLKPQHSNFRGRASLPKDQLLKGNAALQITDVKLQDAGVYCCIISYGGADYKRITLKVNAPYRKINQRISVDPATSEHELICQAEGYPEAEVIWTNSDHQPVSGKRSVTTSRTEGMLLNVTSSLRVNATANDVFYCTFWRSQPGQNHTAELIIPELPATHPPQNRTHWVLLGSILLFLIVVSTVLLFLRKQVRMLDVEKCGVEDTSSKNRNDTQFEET

Results are given in words; binding and its absence hold for the method and conditions named. In cells and extracts the contact can be indirect. Some entries that bind do so weakly or less than the wild type.

The target of assay [1] is MET (human (endogenous in BXPC-3)) (UniProt P08581). Briefly: co-IP; endogenous co-immunoprecipitation from BXPC3 or KPC cell lysates (IP Cell Lysis Buffer); 5 µg antibody (anti-MET, anti-PD-L1 or anti-CMTM6) on 25 µL protein A/G magnetic beads, overnight at 4 °C; Western blotting.
Assay [2] deals with MET (mouse) (mouse (endogenous in KPC)) (UniProt P16056). The description is as above.

“PD-1 ligand 1 (from UniProt Q9NZQ7 19-290)”: the binding result in assay [1] is recorded as “binds”. With “PD-L1 (mouse) (from UniProt Q9EP73 19-290) (ligand)”, the binding entry in assay [2] is given as “binds”.

B1: CMTM6 (protein, UniProt Q9NX76 1-183)
chain: MENGAVYSPTTEEDPGPARGPRSGLAAYFFMGRLPLLRRVLKGLQLLLSLLAFICEEVVSQCTLCGGLYFFEFVSCSAFLLSLLILIVYCTPFYERVDTTKVKSSDFYITLGTGCVFLLASIIFVSTHDRTSAEIAAIVFGFIASFMFLLDFITMLYEKRQESQLRKPENTTRAEALTEPLNA
On to B1, for which, in assay [1], the binding result is recorded as “binds”.
